Construct, isoform or probe ends are uncertain for at least one entry. A negative result means that nothing was seen under these conditions. At least one verdict was read from the data and is not stated in words by the source. Where a protein sequence is shown, tags need not be part of it.
Target: T1, MLDSR (GST-MLDSR) (Rhodococcus jostii RHA1) (UniProt A0A1H4Y2R3)
T1 sequence (looked up, limits assumed): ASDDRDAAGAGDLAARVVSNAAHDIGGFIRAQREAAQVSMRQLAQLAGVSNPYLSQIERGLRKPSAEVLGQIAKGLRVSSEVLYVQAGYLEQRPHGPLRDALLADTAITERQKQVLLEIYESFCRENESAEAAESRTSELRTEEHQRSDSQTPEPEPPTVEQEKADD
Assay: EMSA
Conditions: EMSA: 20 mM Tris-HCl pH 7.5, 150 mM NaCl, 5 mM MgCl2, 1 mM EDTA, 1 mM DTT, 4% glycerol, 24 C or room temperature, 30-40 min; recombinant protein; protein details: N-terminal GST; single-stranded DNA

“TCCGCTAGCTGGGTGCTAACAGA [motif 2 (+) ssDNA]”: no binding.

Reference: publication PMC5504291, “Bacterial lipid droplets bind to DNA via an intermediary protein that enhances survival under stress”
